In publication PMC12519461, “Structural Exploitation of Cinnarizine Identified Novel Drug-Like Anthelmintic Agents Against Angiostrongylus cantonensis” (ACS Infectious Diseases, 2025):

How the values were obtained:
Format in all cases: cell-based
[1] = system: A. cantonensis L1 larvae; test: Anthelmintic activity against A. cantonensis first-stage larvae (motility/viability, 24 h); settings: Angiostrongylus cantonensis, in vitro, 21 °C, read-out: A. cantonensis EC50 (μM ± SEM) L1
Protocol: (§1) Larvae were washed three times in RPMI 1640 medium supplemented with 100 U/mL penicillin and 100 μg/mL streptomycin. Approximately 50 larvae were allocated into individual wells of a 96-well plate containing 200 μL of final volume of RPMI medium. […] Approximately 50 larvae were transferred to each well of a 96-well plate containing RPMI medium. […] Larval viability was monitored at 0 and 24 h post-treatment. […] Assays were performed in triplicate and repeated three times.

[2] = system: A. cantonensis L3 larvae; test: Anthelmintic activity against A. cantonensis infective third-stage larvae (motility/viability, 24 h); settings: Angiostrongylus cantonensis, in vitro, 21 °C, read-out: A. cantonensis EC50 (μM ± SEM) L3
Protocol: as §1

[3] = Cytotoxicity in HaCat cells (MTT, 72 h); settings: human, from 500 μM
Protocol: Cytotoxicity was assessed using the MTT assay. After 72 h, MTT solution was added, followed by 3 h of incubation. Absorbance was measured at 595 nm using an Epoch Microplate Spectrophotometer (BioTek Instruments, Winooski, VT, USA). Assays were performed in triplicate and repeated three times.

C(=C\c1ccccc1)/CN1CCN(C(c2ccccc2)c2ccccc2)CC1 [compound 1, cinnarizine]
EC50 [1]: 45.9 ± 6.3 µM
EC50 [2]: 16.3 ± 1.8 µM
CC50 at 72 h [3]: > 500 µM
